PubChem BioAssay AID1259254 | NCATS – 2017
The whole screen tested about 59,000 reagents; shown is a random part of them. In the full data, about 1,550 (2.6%) are marked active. 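G2 share is only a proxy for re-replication; each gene was hit by three separate siRNAs, and active genes were retested.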 The raw values are shown without normalisation. A number with no mark means an inactive call. Reagents against one gene are numbered here. Reagent sequences are not shown. The record does not give: the amount of reagent.

Screen: 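Finding genes that stop cells copying their DNA twice in one cycle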 (primary screen)
Cell system: human HCT116 colorectal cancer cells
Reagents: single siRNA against human genes
Time to read-out: 3 days
Measured: 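Nuclei stained with Hoechst and imaged; cell-cycle phase assigned by DNA content; G2 share scaled per plate, non-targeting siRNA 0%, GMNN siRNA 100%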
Scale: G2 robust z-score and G2 cells, % of GMNN control: higher = more G2 cells, more excess DNA replication; raw share of cells in G2: higher = larger share of cells with G2 DNA content
Hit rule: 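Active siRNAs have a G2 robust z of 5 or more median absolute deviations over the median, which in these data means about 38% or higher of GMNN control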

target | reagent | G2 robust z-score | G2 cells, % of GMNN control | raw share of cells in G2 (%)
RUSC1-AS1 (GeneID 284618) | 1 | 1.7 | 15 | 7.81
RUSC1-AS1 (GeneID 284618) | 2 | -0.451 | -0.207 | 3.57
RUSC1-AS1 (GeneID 284618) | 3 | 1.76 | 15.4 | 8.99
NTSR2 (GeneID 23620) | 1 | 0.293 | 5.03 | 7.64
NTSR2 (GeneID 23620) | 2 | -0.28 | 1 | 4.87
NTSR2 (GeneID 23620) | 3 | -0.456 | -0.24 | 3.2
PHF2 (GeneID 5253) | 1 | -0.417 | 0.0361 | 4.99
PHF2 (GeneID 5253) | 2 | 3.94 | 30.7 | 16.3
PHF2 (GeneID 5253) | 3 | -0.982 | -3.94 | 1.93
TOP3B (GeneID 8940) | 1 | 1.36 | 12.5 | 9.19
TOP3B (GeneID 8940) | 2 | 1.73 | 15.1 | 10.6
TOP3B (GeneID 8940) | 3 | -0.458 | -0.253 | 4.42
CARMIL1 (GeneID 55604) | 1 | 3.5 | 27.6 | 15.1
CARMIL1 (GeneID 55604) | 2 | -0.508 | -0.604 | 3.89
CARMIL1 (GeneID 55604) | 3 | -0.38 | 0.291 | 3.23
RPS25 (GeneID 6230) | 1 | 1.91 | 16.4 | 11.9
RPS25 (GeneID 6230) | 2 | 0.57 | 6.98 | 6.98
RPS25 (GeneID 6230) | 3 | 3.72 | 29.2 | 13.9
SEPHS2 (GeneID 22928) | 1 | 0.843 | 8.9 | 6.91
SEPHS2 (GeneID 22928) | 2 | 0.155 | 4.06 | 8
SEPHS2 (GeneID 22928) | 3 | -0.443 | -0.15 | 4.11
RPS12P9 (GeneID 727997) | 1 | -0.517 | -0.673 | 3.29
RPS12P9 (GeneID 727997) | 2 | 0.669 | 7.67 | 5.58
RPS12P9 (GeneID 727997) | 3 | 0.602 | 7.2 | 6.33
AP3S2 (GeneID 10239) | 1 | -1.14 | -5.03 | 3.51
AP3S2 (GeneID 10239) | 2 | 1.99 | 17 | 9.33
AP3S2 (GeneID 10239) | 3 | -0.834 | -2.9 | 5.34
VTA1 (GeneID 51534) | 1 | 3.22 | 25.6 | 12.8
VTA1 (GeneID 51534) | 2 | -0.567 | -1.02 | 3.84
VTA1 (GeneID 51534) | 3 | 0.888 | 9.21 | 6.24
CABS1 (GeneID 85438) | 1 | -0.0674 | 2.49 | 5.14
CABS1 (GeneID 85438) | 2 | 1.75 | 15.3 | 7.79
CABS1 (GeneID 85438) | 3 | 0.199 | 4.36 | 4.31
ZNF781 (GeneID 163115) | 1 | 0.256 | 4.77 | 4.73
ZNF781 (GeneID 163115) | 2 | 1.42 | 13 | 7.67
ZNF781 (GeneID 163115) | 3 | -0.53 | -0.761 | 3.26
TAL2 (GeneID 6887) | 1 | 2.66 | 21.7 | 14.8
TAL2 (GeneID 6887) | 2 | 0.816 | 8.71 | 7.34
TAL2 (GeneID 6887) | 3 | 0.0507 | 3.32 | 5.5
CDCA4 (GeneID 55038) | 1 | 0.757 | 8.29 | 7.71
CDCA4 (GeneID 55038) | 2 | 0.0756 | 3.5 | 5.59
CDCA4 (GeneID 55038) | 3 | 0.109 | 3.73 | 4.33
GIP (GeneID 2695) | 1 | -0.0377 | 2.7 | 6.22
GIP (GeneID 2695) | 2 | 2.29 | 19.1 | 12.5
GIP (GeneID 2695) | 3 | -1.16 | -5.2 | 1.81
ADAMTSL2 (GeneID 9719) | 1 | -1.13 | -4.97 | 1.87
ADAMTSL2 (GeneID 9719) | 2 | -1.34 | -6.44 | 3.12
ADAMTSL2 (GeneID 9719) | 3 | 1.8 | 15.6 | 9.88
KCNMA1 (GeneID 3778) | 1 | 0.489 | 6.41 | 7.62
KCNMA1 (GeneID 3778) | 2 | 3.68 | 28.8 | 14.5
KCNMA1 (GeneID 3778) | 3 | 0.82 | 8.74 | 7.79
WWC1 (GeneID 23286) | 1 | -0.859 | -3.08 | 3.26
WWC1 (GeneID 23286) | 2 | 0.0848 | 3.56 | 5.48
WWC1 (GeneID 23286) | 3 | 1.19 | 11.3 | 7.25
CAV1 (GeneID 857) | 1 | -0.967 | -3.84 | 3.41
CAV1 (GeneID 857) | 2 | -0.866 | -3.12 | 3.96
CAV1 (GeneID 857) | 3 | -1.11 | -4.85 | 2.18
MRPL13 (GeneID 28998) | 1 | 2.68 | 21.8 | 12.2
MRPL13 (GeneID 28998) | 2 | 2.78 | 22.6 | 13.1
MRPL13 (GeneID 28998) | 3 | 4.02 | 31.3 | 13.1
MAPK12 (GeneID 6300) | 1 | -1.05 | -4.41 | 4.15
MAPK12 (GeneID 6300) | 2 | -0.733 | -2.19 | 4.67
MAPK12 (GeneID 6300) | 3 | 0.0695 | 3.46 | 5.24
CD247 (GeneID 919) | 1 | -0.232 | 1.34 | 5.44
CD247 (GeneID 919) | 2 | -1.17 | -5.24 | 2.29
CD247 (GeneID 919) | 3 | 0.205 | 4.41 | 6.6
TBC1D3G (GeneID 101060321) | 1 | 0.0718 | 3.47 | 3.81
TBC1D3G (GeneID 101060321) | 2 | 0.396 | 5.75 | 5.83
TBC1D3G (GeneID 101060321) | 3 | -1.12 | -4.91 | 1.36

In a second layout: entries from further up.
CABS1 (GeneID 85438) #2 | G2 robust z-score = 1.75; G2 cells, % of GMNN control = 15.3; raw share of cells in G2 (%) = 7.79
CABS1 (GeneID 85438) #3 | G2 robust z-score = 0.199; G2 cells, % of GMNN control = 4.36; raw share of cells in G2 (%) = 4.31
ZNF781 (GeneID 163115) #1 | G2 robust z-score = 0.256; G2 cells, % of GMNN control = 4.77; raw share of cells in G2 (%) = 4.73
ZNF781 (GeneID 163115) #2 | G2 robust z-score = 1.42; G2 cells, % of GMNN control = 13; raw share of cells in G2 (%) = 7.67
ZNF781 (GeneID 163115) #3 | G2 robust z-score = -0.53; G2 cells, % of GMNN control = -0.761; raw share of cells in G2 (%) = 3.26
TAL2 (GeneID 6887) #1 | G2 robust z-score = 2.66; G2 cells, % of GMNN control = 21.7; raw share of cells in G2 (%) = 14.8
